# According to patent publication US20220251163A1 (Sinopep-Allsino Biopharmaceutical Co., Ltd., priority 2019, published 2022):
# For at least one compound, name, drawing or mass did not settle the structure.
# Tests used:
# ob/ob mice = assay: Blood glucose reducing experiment, single subcutaneous injection in ob/ob mice; format: in vivo; conditions: 100 μg/kg single s.c.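 Note: random blood glucose read at each time point, decrease rate given as percentage fall versus the model control group.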
# [1] = Effect on random weight of ob/ob mice after single subcutaneous injection; format: in vivo; conditions: 100 μg/kg single s.c., X ± s, n = 7
smiles,measurement,setting,value
"CCCCCCCCCCCCCCCC(=O)N[C@@H](CCC(=O)NCCCC[C@H](NC(=O)[C@H](C)NC(=O)[C@H](C)NC(=O)[C@H](CCC(N)=O)NC(=O)CNC(=O)[C@H](CCC(=O)O)NC(=O)[C@H](CC(C)C)NC(=O)[C@H](Cc1ccc(O)cc1)NC(=O)[C@H](CO)NC(=O)[C@H](CO)NC(=O)[C@@H](NC(=O)[C@H](CC(=O)O)NC(=O)[C@H](CO)NC(=O)[C@@H](NC(=O)[C@H](Cc1ccccc1)NC(=O)[C@@H](NC(=O)CNC(=O)[C@H](CCC(=O)O)NC(=O)[C@H](C)NC(=O)[C@@H](N)Cc1cnc[nH]1)[C@@H](C)O)[C@@H](C)O)C(C)C)C(=O)N[C@@H](CCC(=O)O)C(=O)N[C@@H](Cc1ccccc1)C(=O)N[C@H](C(=O)N[C@@H](C)C(=O)N[C@@H](Cc1c[nH]c2ccccc12)C(=O)N[C@@H](CC(C)C)C(=O)N[C@H](C(=O)N[C@@H](CCCNC(=N)N)C(=O)NCC(=O)N[C@@H](CCCNC(=N)N)C(=O)NCC(=O)O)C(C)C)[C@@H](C)CC)C(=O)O [Liraglutide, reference compound]","Blood glucose at different time after administration, 0 h","ob/ob mice; 0 h (before administration), X ± s, n = 7",20.14 ± 0.98 mmol/L
same,"Decrease rate of blood glucose at different time after administration, 2 h",ob/ob mice; 2 h,42.6%
same,"Decrease rate of blood glucose at different time after administration, 4 h",ob/ob mice; 4 h,48.7%
same,"Blood glucose at different time after administration, 4 h","ob/ob mice; 4 h, X ± s, n = 7",10.34 ± 1.30 mmol/L
same,"Decrease rate of blood glucose at different time after administration, 6 h",ob/ob mice; 6 h,47.2%
same,"Blood glucose at different time after administration, 6 h","ob/ob mice; 6 h, X ± s, n = 7",10.63 ± 0.84 mmol/L
same,"Decrease rate of blood glucose at different time after administration, 10 h",ob/ob mice; 10 h,40.3%
same,"Blood glucose at different time after administration, 10 h","ob/ob mice; 10 h, X ± s, n = 7",12.03 ± 0.81 mmol/L
same,"Decrease rate of blood glucose at different time after administration, 24 h",ob/ob mice; 24 h,12.1%
same,"Blood glucose at different time after administration, 24 h","ob/ob mice; 24 h, X ± s, n = 7",17.71 ± 1.08 mmol/L
same,AUC0-24 h Glu,"ob/ob mice; blood glucose curve area within 24 h, X ± s, n = 7",328.07 ± 19.12 mmol·h/L
same,AUC0-24 h Glu Decrease rate,ob/ob mice; versus model control group,35.8%
same,"Changes of random body weight at different time after administration, 0 h",[1]; 0 h,0.0 ± 0.0 g
same,"Random body weight at different time after administration, 0 h",[1]; 0 h,43.0 ± 1.1 g
same,"Changes of random body weight at different time after administration, 24 h",[1]; 24 h,-0.5 ± 0.1 g
same,"Random body weight at different time after administration, 24 h",[1]; 24 h,42.6 ± 1.1 g
